Measured values published in PubChem BioAssay AID540276 (National Center for Advancing Translational Sciences (NCATS), 2011).
“And” between values parts separate entries of the source, which are not always exact repeats. Equal values may be shown once. Out of some 300,000 compounds screened, about 5,400 (1.8%) were called active. The inconclusive results got no clear call from the source; some entries with a clear call stand among them for comparison. The call rests on the fitted dose curve; tested in HEK293 cells. Where the call is inconclusive, the potency comes from a doubtful curve fit.

Test: qHTS for inhibitors of binding or entry into cells for Marburg Virus
Details: Marburg virus pseudotyped entry inhibition, cell reporter; series mostly up to 37.8 µM
Potency means the concentration at half of the fitted maximal effect.

Row | Compound | Potency
1 | COc1cc2c(=O)c(S(=O)(=O)c3ccc(F)cc3)cn(Cc3ccccc3C)c2cc1OC | inactive
2 | O=C(c1ccc(NS(=O)(=O)c2ccc3[nH]c(=O)[nH]c3c2)cc1)N1CCCCC1 | inactive
3 | O=C(NCc1cccs1)C(=O)c1cn(CC(=O)N2CCCC2)c2ccccc12 | inactive
4 | NC(CSC1(c2ccc(Cl)cc2)c2ccccc2-c2ccccc21)C(=O)O (stereo not drawn) | inactive
5 | COc1ccc(N2CCN(C(=O)CNC(=O)c3nn(-c4ccc(OC)cc4)c(=O)c4ccccc34)CC2)cc1 | inconclusive: 0.501 µM [inhibitor, partial curve, poor fit]
6 | CCc1noc(C)c1C(=O)N1CCCSC1=Nc1ccccc1Cl | inconclusive: 14.1 µM [inhibitor, partial curve, poor fit]
7 | Cc1cccc(OCCSCc2nc3ccccc3[nH]2)c1 | inconclusive: 14.1 µM [inhibitor, partial curve, poor fit]
8 | O=S(=O)(c1ccc(Br)cc1)c1nc(-c2ccccc2)oc1NCc1cccnc1 | inconclusive: 8.91 µM [inhibitor, partial curve]
9 | CC1CC(C)CN(C(=O)/C=C/c2ccc(S(=O)(=O)N3CCOCC3)cc2)C1 (stereo not drawn) | inactive
10 | Cn1cc(CC(=O)N2CCN(c3ccc(Cl)cc3)CC2)c2ccccc21 | inconclusive: 15.8 µM [inhibitor, single point]
11 | C#CCn1c(COc2ccccc2C)nc2ccccc21 | inconclusive: 12.6 µM [activator, partial curve, poor fit]
12 | CCCN(CCC)C(=O)CSc1nc2ccccc2c(=O)n1CC1COc2ccccc2O1 (stereo not drawn) | inconclusive: 32.6 µM [inhibitor, single point]
13 | COc1ccc(N2C(=O)S[C@@H]3CS(=O)(=O)C[C@@H]32)cc1 | inconclusive: 6.31 µM [activator, single point]
14 | CC1(C)Cc2cccc(Oc3ccc(S(=O)(=O)N4CCCC4)cn3)c2O1 | inconclusive: 7.94 µM [inhibitor, full curve, poor fit]
15 | CCn1c(/C=C/c2ccc(O)cc2)nc2ccccc2c1=O | inconclusive: 35.5 µM [inhibitor, single point]
16 | Nc1nc2n(n1)C(=O)CC(c1ccccc1)N2 (stereo not drawn) | inactive
17 | CCOc1ccc(C(=O)N[C@H](C(=O)Nc2cccc(S(=O)(=O)N3CCCCC3)c2)C(C)C)cc1 | inconclusive: 35.5 µM [inhibitor, single point]
18 | CCC(C(=O)Nc1ccc(C(=O)OC)cc1)n1nc(-c2ccc(C)cc2)c2c(c1=O)CCCC2 (stereo not drawn) | inconclusive: 25.1 µM [inhibitor, single point]
19 | COc1cccc(N2CCN(c3ccc(S(=O)(=O)N4CCN(C)CC4)cc3[N+](=O)[O-])CC2)c1 | inconclusive: 17.8 µM [inhibitor, single point]
20 | CCC1CSC(=Nc2ccc(C)cc2)N1C(=O)CN1C(=O)NC2(CCCC2)C1=O (stereo not drawn) | inconclusive: 12.6 µM [inhibitor, partial curve, poor fit]
21 | CCN(CC(=O)NC(c1ccccc1)c1ccccc1)Cc1nc2ccccc2c(=O)[nH]1 | inconclusive: 22.4 µM [inhibitor, single point]
22 | CCOc1ccccc1C(=O)NCCCn1ccnc1 | inconclusive: 22.4 µM [activator, single point]
23 | Cn1c(=O)c(C(=O)NNC(=O)c2ccc(Br)cc2)c(O)c2ccccc21 | inactive

Two of the compounds above, with tabs:
Row	Compound	Potency
10	Cn1cc(CC(=O)N2CCN(c3ccc(Cl)cc3)CC2)c2ccccc21	inconclusive: 15.8 µM [inhibitor, single point]
11	C#CCn1c(COc2ccccc2C)nc2ccccc21	inconclusive: 12.6 µM [activator, partial curve, poor fit]

Further compounds:

Row | Compound | Potency
24 | C=C(C)CSc1cc(C)c(C#N)c2nc3ccccc3n12 | inconclusive: 22.4 µM [inhibitor, single point]
25 | Cc1cc(Br)ccc1NC(=O)C(Cc1ccccc1)NS(=O)(=O)c1ccc(Br)s1 (stereo not drawn) | inactive
26 | COCCNC(=O)C/C(C)=N/NC(=O)C(=O)NC1CCCCC1 | inconclusive: 5.01 µM [activator, partial curve, poor fit]
27 | Cc1ccc(C(CNC(=O)C(=O)Nc2ccc3c(c2)OCCO3)N2CCN(C)CC2)cc1 (stereo not drawn) | inconclusive: 35.5 µM [inhibitor, single point]
28 | COc1ccc(NS(=O)(=O)c2ccc(-n3nnc4ccccc43)c([N+](=O)[O-])c2)cc1 | inactive
29 | COC(=O)N[C@H](C[N+](=O)[O-])C(C)(C)C | inactive
30 | C#CCOc1ccc(Br)cc1/C=N/O | inconclusive: 35.5 µM [inhibitor, single point]
31 | Cc1cc(SCC(=O)NN)c2cc(Br)ccc2n1 | inactive
32 | COCC=CC1=CC2=CC(=O)C(C)(OC(=O)c3cnc4ccccc4n3)C(=O)C2=CN1CCc1c[nH]c2ccccc12 (stereo not drawn) | inactive
33 | Cc1ccsc1/C=N/NC(=O)c1nnn(-c2nonc2N)c1C | inactive
34 | Cc1oc2cc(O)cc(O)c2c(=O)c1-c1ccc2c(c1)OCCCO2 | inactive
35 | CNc1ccccc1C(=O)OCC(C)=O | inconclusive: 94.4 nM [inhibitor, full curve, poor fit] and inconclusive: 58 nM [inhibitor, full curve, poor fit]
36 | COC(=O)c1c(C)oc(C)c1S(=O)(=O)N(C)C1CCCCC1 | inactive
37 | Cc1csc(NC(=O)CSC2=NS(=O)(=O)c3ccccc3N2)n1 | inconclusive: 35.5 µM [activator, single point]
38 | Cc1cc(C)c2c(CC(=O)Nc3ccc(S(=O)(=O)N4CCCC(C)C4)cc3)coc2c1 (stereo not drawn) | inconclusive: 20 µM [inhibitor, partial curve, poor fit]
39 | Cc1cccc(C(C)C)c1NC(=O)c1ccc(CN(c2ccccc2)S(=O)(=O)c2ccccc2)cc1 | inconclusive: 5.62 µM [activator, single point]
40 | Cc1nc2ccc(C(=O)N/N=C/c3ccc(O)cc3)cc2[nH]1 | inactive
41 | COc1cccc(Cn2cnc3c([N+](=O)[O-])c(C)c(C)cc32)c1 | inconclusive: 12.6 µM [inhibitor, single point]
42 | O=C(CCCc1nc(-c2ccc(Cl)cc2)no1)NCC1CCCO1 (stereo not drawn) | inconclusive: 11.2 µM [inhibitor, partial curve, poor fit]
43 | O=C(/C=C/c1ccco1)Nc1ccc(Oc2ccc(Cl)cc2)cc1 | inconclusive: 2.82 µM [inhibitor, partial curve, poor fit]
44 | COc1ccc(NC(=O)c2cc3n(n2)C(C(F)(F)F)CC(c2ccco2)N3)cc1 (stereo not drawn) | inconclusive: 0.794 µM [activator, partial curve]
45 | CCOc1ccccc1NC(=O)CSc1nc2c(c(=O)[nH]1)CCC2 | inconclusive: 10 µM [inhibitor, partial curve, poor fit]
46 | O=C(Nc1ccc(N2CCOCC2)nc1)c1ccccc1Cl | inactive

Row | Compound | Potency
47 | COc1ccc(OCc2nc3ccccc3n2C(C)c2ccccc2)cc1 (stereo not drawn) | inactive
48 | Cc1ccnc(NS(=O)(=O)c2ccc(NC(=O)C(C)(C)Oc3ccc(Cl)cc3)cc2)n1 | inactive
49 | CN(N=Nc1nc[nH]c1C(=O)NN)C1CCCCC1 | inconclusive: 25.1 µM [activator, single point]
50 | O=C(Cn1cnc2ccccc21)NC(c1ccccc1)c1ccccc1 | inactive
51 | CCC12CC3CC(C1)CC(C(=O)O)(C3)C2 | inconclusive: 29.1 µM [inhibitor, single point]
52 | O=C(c1ccco1)N1CCN(Cc2nnnn2C2CCCCC2)CC1 | inactive
53 | O=C1C2C3C=CC(C4CC34)C2C(=O)N1/N=C/c1ccc([N+](=O)[O-])o1 (stereo not drawn) | inconclusive: 8.91 µM [inhibitor, partial curve, poor fit]
54 | CN(C)c1oc(-c2ccccc2Cl)nc1C#N | inactive
55 | CCCN(S(=O)(=O)c1ccccc1F)S(=O)(=O)c1ccccc1Br | inconclusive: 14.1 µM [inhibitor, single point]
56 | Cc1nn(CCOc2ccccc2)c(=O)n1-c1c(F)cccc1F | inactive
57 | COc1ccc(/C=N/NC(=O)c2cc(C)oc2C)cc1OCc1ccccc1 | inconclusive: 15.8 µM [inhibitor, partial curve, poor fit]
58 | CCc1nccn1CCC(=O)NC1CC(C)(C)Cc2c1cnn2-c1ccc(C)cc1 (stereo not drawn) | inconclusive: 35.5 µM [inhibitor, single point]
59 | Cn1cc(Cl)c(C(=O)N/N=C/c2ccc(OS(=O)(=O)c3ccccc3)cc2)n1 | inactive
60 | Fc1ccc(C2CC(c3cccs3)=NN2c2ccccc2)cc1 (stereo not drawn) | inconclusive: 35.5 µM [inhibitor, single point]
61 | CCN(CC(=O)NCc1cccs1)C(=O)c1ccccc1Cl | inactive
62 | CCOc1ccccc1OCC(=O)Nc1cc(S(=O)(=O)N2CCCCC2)ccc1N1CCN(CC)CC1 | inconclusive: 25.1 µM [inhibitor, single point]
63 | COc1cccc(C(=O)NC2CC3CCCC(C2)N3CC(=O)Nc2ccccc2)c1 (stereo not drawn) | inconclusive: 13 µM [inhibitor, partial curve, poor fit]
64 | O=C(Nc1cccc(S(=O)(=O)N2CCOCC2)c1)C1COc2ccccc2O1 (stereo not drawn) | inconclusive: 3.98 µM [inhibitor, partial curve, poor fit]
65 | c1cc2c(cc1Oc1nc(N3CCOCC3)nc(N3CCOCC3)n1)OCO2 | inconclusive: 25.1 µM [inhibitor, single point]
66 | Cc1cc(OCC(=O)Nc2ccc(S(=O)(=O)N3CCN(C)CC3)cc2)cc(C)c1Cl | inconclusive: 12.6 µM [inhibitor, single point]
67 | Cn1c(=O)c2sccc2n2c(CCC(=O)NCc3ccc(F)cc3)nnc12 | inactive
68 | CCOc1ccc(N(CC(=O)Nc2cccc(N(C)S(C)(=O)=O)c2)S(=O)(=O)c2ccccc2)cc1 | inconclusive: 1.46 µM [inhibitor, partial curve, poor fit]

Rewritten as tab-separated lines: part of the list above
Row	Compound	Potency
50	O=C(Cn1cnc2ccccc21)NC(c1ccccc1)c1ccccc1	inactive
66	Cc1cc(OCC(=O)Nc2ccc(S(=O)(=O)N3CCN(C)CC3)cc2)cc(C)c1Cl	inconclusive: 12.6 µM [inhibitor, single point]
